Assay results published in publication PMC11056994, “Potentiating Activity of GmhA Inhibitors on Gram-Negative Bacteria” (Journal of Medicinal Chemistry, 2024).

Test system: E. coli C7 (018:K1:H7) LPS biosynthesis
Test: Inhibition of bacterial LPS biosynthesis (silver-stained LPS SDS-PAGE)
Assay type: cell-based
Details: for Ratio EC50/IC50: LPS biosynthesis EC50 / GmhA IC50; for EC50/IC50: supplementary csv
Description: The compounds to be tested were prepared in deionized water/DMSO (50/50) solutions and added (25 μL) in sterile culture microtubes. The test bacterial isolate was isolated on tryptic soy agar (TSA) overnight. Isolated colonies were cultured in 10 mL of LB medium at 37 °C up to an OD of typically 0.15. These exponentially growing bacteria were finally diluted to 5 × 10^5 cfu/mL and added in each well (225 μL) for incubation with the compounds at 37 °C for approximately 5 h, up to an OD of ≈0.2–0.4. Some test compounds, e.g., phospho-sugars are actively transported into the bacterial cytosol via the phospho-sugar transporter UhpT (Figure S3). 2.5 μL portion of a 10 mM water solution of glucose-6-phosphate (G6P, 100 μM final concentration, from Sigma) was added in the culture tube in order to induce UhpT expression. LPS extraction: Bacterial cultures were normalized via OD determination, pelleted, and washed with 1 mL of phosphate-buffered-saline (PBS). The pellets were then denatured for 10 min at 95–100 °C in 50 μL of 0.2% sodium dodecyl sulfate (SDS), β-mercaptoethanol 1%, glycerol 36%, Tris 30 mM, pH 7.4, and bromophenol blue 0.001%. Samples were cooled down to room temperature, supplemented with 1.5 μL of proteinase K at 20 mg/mL, incubated for 1 h at 55 °C, and centrifuged for 30 min at 13,000 rpm at 25 °C. The resulting supernatant, containing LPS, was finally analyzed by SDS-PAGE electrophoresis. LPS SDS-PAGE electrophoresis: Polyacrylamide gels (16%/4% acrylamide for separation and concentration, respectively) were prepared, loaded with 8 μL of LPS extracts, and migrated. Silver staining: Gels were incubated overnight in 5% acetic acid/40% ethanol/deionized water, treated by 1% periodic acid/5% acetic acid for 15 min, washed 4 times for 10 min in deionized water, and finally incubated for 18 min in the dark in a silver nitrate solution composed of 56 mL of 0.1 M NaOH (56 mL), 33% aq ammonia (4 mL), 5% AgNO3 (45 mL), and deionized water (195 mL). Gels were then washed extensively in deionized water for 30 min and incubated for 10–15 min (up to LPS band appearance) in the revelation mix composed of 300 mL of deionized water (300 mL), 36.5% formaldehyde (0.3 mL, Fluka), and 2.3 M citric acid (0.1 mL). The revelation was stopped by incubating the gels in 10% acetic acid for 5 min. Gels were finally washed in deionized water, numerized with a Samsung PL51 camera, and analyzed by ImageJ software. The percentage of inhibition of LPS heptosylation was defined as the relative area of the Re-LPS band compared to the cumulated areas of Re-LPS and Core-LPS bands.

| SMILES | Ratio EC50/IC50 | EC50/IC50 |
| --- | --- | --- |
| O=CN(O)C[C@H](O)[C@H](O)[C@H](O)C(O)CP(=O)([O-])O.[Na+] (some centres unmarked) [Compound 31] | 2,400 |  |
| O=CN(O)C[C@H](O)[C@H](O)[C@H](O)CC(F)P(=O)([O-])O.[Na+] (some centres unmarked) [Compound 76] | 5,100 |  |
| O=CN(O)C[C@H](O)[C@H](O)[C@H](O)/C=C/P(=O)([O-])O.[Na+] [Compound 25] | 8,700 |  |
| O=CN(O)C[C@H](O)[C@H](O)[C@H](O)C(O)C(O)P(=O)([O-])O.[Na+] (some centres unmarked) [Compound 27] | >1,300 | >1300 |
| O=CN(O)C[C@H](O)[C@H](O)[C@H](O)CP(=O)(O)O [Compound 20] | >1,400 | >1400 |
| O=CN(O)C[C@H](O)[C@H](O)[C@H](O)COP(=O)(O)O [Compound 17] | 8,300 |  |
| O=C(NO)[C@@H](O)[C@H](O)[C@H](O)[C@H](O)COP(=O)(O)O [Compound 96] | > 6,000 | >6000 |
| O=CN(O)C[C@H](O)[C@H](O)[C@H](O)CC(O)P(=O)([O-])O.[Na+] (some centres unmarked) [Compound 41] | 10,000 |  |
